Reference: PMC11167044

Chains of the proteins cited; added tags and fusions are not shown.
UniProt P99999: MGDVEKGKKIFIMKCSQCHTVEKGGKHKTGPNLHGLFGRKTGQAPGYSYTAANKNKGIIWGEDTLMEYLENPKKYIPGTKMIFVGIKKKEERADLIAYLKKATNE
UniProt P14618: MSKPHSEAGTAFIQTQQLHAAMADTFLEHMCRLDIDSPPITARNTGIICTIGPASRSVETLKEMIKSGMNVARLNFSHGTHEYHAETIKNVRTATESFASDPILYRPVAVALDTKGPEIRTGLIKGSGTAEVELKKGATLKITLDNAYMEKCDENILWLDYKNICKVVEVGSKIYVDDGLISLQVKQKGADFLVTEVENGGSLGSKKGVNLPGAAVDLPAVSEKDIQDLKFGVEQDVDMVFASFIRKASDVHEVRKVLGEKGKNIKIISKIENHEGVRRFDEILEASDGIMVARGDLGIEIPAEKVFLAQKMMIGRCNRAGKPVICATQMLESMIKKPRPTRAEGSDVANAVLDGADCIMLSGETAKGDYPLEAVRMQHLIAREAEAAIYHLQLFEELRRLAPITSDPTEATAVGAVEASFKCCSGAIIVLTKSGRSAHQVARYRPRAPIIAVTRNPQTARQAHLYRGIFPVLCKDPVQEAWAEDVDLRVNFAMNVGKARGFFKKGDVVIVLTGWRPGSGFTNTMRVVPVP

Biological target: T1, MYG1 stably overexpressed in SW480 cells (human) (UniProt Q9HB07)
T1 sequence: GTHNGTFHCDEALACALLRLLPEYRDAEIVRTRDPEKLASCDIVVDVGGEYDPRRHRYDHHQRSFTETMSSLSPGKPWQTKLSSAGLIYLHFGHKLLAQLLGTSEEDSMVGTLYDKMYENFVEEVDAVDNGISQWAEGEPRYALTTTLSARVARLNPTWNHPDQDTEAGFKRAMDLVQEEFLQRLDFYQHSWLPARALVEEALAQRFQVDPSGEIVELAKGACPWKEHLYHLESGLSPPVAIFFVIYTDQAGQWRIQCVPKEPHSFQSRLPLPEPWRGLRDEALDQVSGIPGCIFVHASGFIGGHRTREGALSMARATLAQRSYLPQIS
Experiment: affinity purification with mass spectrometry; nucleus and mitochondria separated from SW480 cells overexpressing MYG1; co-immunoprecipitation of MYG1; proteins identified by IP-MS (LC/MS)

| binding | Substance |
| --- | --- |
| binds | Cyt c (from UniProt P99999 1-105) |
| binds | PKM2 in SW480 cells (from UniProt P14618 1-531) (enzyme) |

These are yes or no findings as the source states them, for the method shown. Binding seen in cells or lysates may run through a third protein. Here binding means that the protein was enriched with, or labelled near, the bait; the list need not be complete.
